# Reference: paper PMC6701944
# Amino acid sequences for entries named in this document (tags omitted). A change or cut given only in a name is not applied to a line headed by its entry.
# UniProt Q9HC16: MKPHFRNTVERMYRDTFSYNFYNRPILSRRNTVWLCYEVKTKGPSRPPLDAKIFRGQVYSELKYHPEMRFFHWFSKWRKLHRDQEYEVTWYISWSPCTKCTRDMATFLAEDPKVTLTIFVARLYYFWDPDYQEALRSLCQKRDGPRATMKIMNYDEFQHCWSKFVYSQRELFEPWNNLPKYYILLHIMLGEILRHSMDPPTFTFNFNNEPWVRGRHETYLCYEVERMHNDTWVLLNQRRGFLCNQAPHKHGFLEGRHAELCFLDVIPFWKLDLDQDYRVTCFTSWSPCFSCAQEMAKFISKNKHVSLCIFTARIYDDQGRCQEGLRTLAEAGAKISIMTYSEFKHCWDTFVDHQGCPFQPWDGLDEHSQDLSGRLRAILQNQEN
# These are yes or no findings as the source states them, for the method shown. Binding seen in cells or lysates may run through a third protein. Some entries that bind do so weakly or less than the wild type. For part of these data: Tags and fused reporters may be left off the sequences shown.
# T1: HA-USP49 (human) (UniProt Q70CQ1)
# T1 sequence: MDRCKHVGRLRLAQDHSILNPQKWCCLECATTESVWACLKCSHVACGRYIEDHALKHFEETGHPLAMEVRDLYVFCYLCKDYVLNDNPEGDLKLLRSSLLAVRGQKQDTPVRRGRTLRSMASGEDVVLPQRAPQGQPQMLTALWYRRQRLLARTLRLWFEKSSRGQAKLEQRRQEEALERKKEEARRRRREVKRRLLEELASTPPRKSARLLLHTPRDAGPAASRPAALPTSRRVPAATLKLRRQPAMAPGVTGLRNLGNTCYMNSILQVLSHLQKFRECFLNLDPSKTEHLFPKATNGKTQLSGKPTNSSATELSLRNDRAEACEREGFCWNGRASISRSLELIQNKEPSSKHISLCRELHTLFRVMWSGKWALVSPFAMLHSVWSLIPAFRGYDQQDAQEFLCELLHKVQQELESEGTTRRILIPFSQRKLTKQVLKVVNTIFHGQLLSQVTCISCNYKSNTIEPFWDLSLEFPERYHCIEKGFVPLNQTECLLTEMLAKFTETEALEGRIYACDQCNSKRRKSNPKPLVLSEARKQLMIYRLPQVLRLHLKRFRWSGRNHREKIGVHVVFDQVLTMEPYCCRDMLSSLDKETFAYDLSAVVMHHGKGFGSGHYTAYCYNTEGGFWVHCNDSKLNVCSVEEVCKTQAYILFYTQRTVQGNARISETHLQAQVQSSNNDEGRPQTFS
# T2: Flag-USP49 (human) (UniProt Q70CQ1)
# T2 sequence: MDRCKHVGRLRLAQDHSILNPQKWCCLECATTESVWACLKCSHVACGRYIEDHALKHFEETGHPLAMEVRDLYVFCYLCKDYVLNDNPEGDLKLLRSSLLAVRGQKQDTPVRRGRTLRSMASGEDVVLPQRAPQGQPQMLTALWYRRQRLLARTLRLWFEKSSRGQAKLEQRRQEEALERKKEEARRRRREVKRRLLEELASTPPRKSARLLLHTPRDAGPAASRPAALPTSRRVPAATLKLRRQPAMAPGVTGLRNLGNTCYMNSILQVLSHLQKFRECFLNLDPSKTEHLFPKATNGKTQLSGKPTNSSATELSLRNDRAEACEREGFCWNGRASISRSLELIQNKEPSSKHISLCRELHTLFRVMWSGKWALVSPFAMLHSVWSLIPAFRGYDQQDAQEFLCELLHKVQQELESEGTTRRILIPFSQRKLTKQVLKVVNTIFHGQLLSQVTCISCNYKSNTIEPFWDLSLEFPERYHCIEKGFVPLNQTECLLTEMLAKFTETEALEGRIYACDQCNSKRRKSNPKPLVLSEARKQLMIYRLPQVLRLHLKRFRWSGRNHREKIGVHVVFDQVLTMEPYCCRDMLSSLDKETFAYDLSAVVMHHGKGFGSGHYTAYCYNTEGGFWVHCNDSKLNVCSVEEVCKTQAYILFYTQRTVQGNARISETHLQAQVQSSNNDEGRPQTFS
# B1: endogenous USP49 (enzyme, UniProt Q70CQ1 1-688)
# chain: MDRCKHVGRLRLAQDHSILNPQKWCCLECATTESVWACLKCSHVACGRYIEDHALKHFEETGHPLAMEVRDLYVFCYLCKDYVLNDNPEGDLKLLRSSLLAVRGQKQDTPVRRGRTLRSMASGEDVVLPQRAPQGQPQMLTALWYRRQRLLARTLRLWFEKSSRGQAKLEQRRQEEALERKKEEARRRRREVKRRLLEELASTPPRKSARLLLHTPRDAGPAASRPAALPTSRRVPAATLKLRRQPAMAPGVTGLRNLGNTCYMNSILQVLSHLQKFRECFLNLDPSKTEHLFPKATNGKTQLSGKPTNSSATELSLRNDRAEACEREGFCWNGRASISRSLELIQNKEPSSKHISLCRELHTLFRVMWSGKWALVSPFAMLHSVWSLIPAFRGYDQQDAQEFLCELLHKVQQELESEGTTRRILIPFSQRKLTKQVLKVVNTIFHGQLLSQVTCISCNYKSNTIEPFWDLSLEFPERYHCIEKGFVPLNQTECLLTEMLAKFTETEALEGRIYACDQCNSKRRKSNPKPLVLSEARKQLMIYRLPQVLRLHLKRFRWSGRNHREKIGVHVVFDQVLTMEPYCCRDMLSSLDKETFAYDLSAVVMHHGKGFGSGHYTAYCYNTEGGFWVHCNDSKLNVCSVEEVCKTQAYILFYTQRTVQGNARISETHLQAQVQSSNNDEGRPQTFS
# What was measured:
# HA-USP49 (human) = molecular target: T1, HA-USP49 (human); test: co-IP; HEK293T co-transfected with HA-USP49 and Flag-A3G; lysate immunoprecipitated with HA beads, then treated with RNase A (20 ug/mL) for 1 hr; immunoblot
# Flag-USP49 (human) = molecular target: T2, Flag-USP49 (human); test: co-IP; HEK293T co-transfected with Flag-USP49 and HA-A3G; lysate (150 mM NaCl, 50 mM Tris-HCl pH 7.5, 1 mM EDTA, 1% Triton X-100, 0.5% NP-40) immunoprecipitated with Flag beads, 4 hr at 4°C; immunoblot
# HA-A3G (in Hela) (human) = HA-A3G (in Hela) (human) (UniProt Q9HC16); test: co-IP; Hela cells transfected with HA-A3G (or HA-GFP); lysate immunoprecipitated with HA beads; immunoblot for endogenous USP49
molecule,measurement,setting,value
Flag-A3G (from UniProt Q9HC16 1-384),binding,HA-USP49 (human),binds
HA-A3G (in HEK293T) (from UniProt Q9HC16 1-384),binding,Flag-USP49 (human),binds
B1,binding,HA-A3G (in Hela) (human),binds
